This assay addresses T1, ProtA-tagged CtNdc1 (Chaetomium thermophilum Ndc1), expressed in S. cerevisiae (Chaetomium thermophilum) (UniProt G0S235).
T1 sequence: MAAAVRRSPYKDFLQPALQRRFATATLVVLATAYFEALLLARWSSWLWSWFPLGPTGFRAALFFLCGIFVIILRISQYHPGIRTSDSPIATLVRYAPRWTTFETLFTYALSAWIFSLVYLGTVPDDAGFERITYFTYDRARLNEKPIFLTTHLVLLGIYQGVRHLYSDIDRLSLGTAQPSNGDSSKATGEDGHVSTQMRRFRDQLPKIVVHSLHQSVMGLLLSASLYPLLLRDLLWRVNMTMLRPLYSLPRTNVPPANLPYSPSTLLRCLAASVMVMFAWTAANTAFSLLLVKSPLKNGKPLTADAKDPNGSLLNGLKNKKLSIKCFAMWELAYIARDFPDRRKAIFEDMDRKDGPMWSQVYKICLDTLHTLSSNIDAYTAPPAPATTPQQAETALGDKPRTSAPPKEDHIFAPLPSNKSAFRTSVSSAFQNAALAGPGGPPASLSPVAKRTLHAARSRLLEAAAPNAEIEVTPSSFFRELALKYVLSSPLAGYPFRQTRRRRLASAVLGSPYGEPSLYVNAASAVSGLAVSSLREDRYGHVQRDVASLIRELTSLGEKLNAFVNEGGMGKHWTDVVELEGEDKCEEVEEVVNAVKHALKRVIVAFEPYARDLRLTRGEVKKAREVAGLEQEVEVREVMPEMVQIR
Briefly: pull-down.

Results are given in words; binding and its absence hold for the method and conditions named. Binding can be weak; no strength is given. Sequences can lack the tags named with a protein.

Consider “C-terminal α-helical domain of CtNup120 (Chaetomium thermophilum) (domain or fragment)”, for which the binding result is recorded as “binds”. With “C-terminal α-helical domain of CtNup133 (Chaetomium thermophilum) (domain or fragment)”, the binding entry was “binds”. Next, “β-propeller domain of CtNup120 (Chaetomium thermophilum) (domain or fragment)”: “no binding”; “β-propeller domain of CtNup133 (Chaetomium thermophilum) (domain or fragment)”: “no binding”.

The record behind these values is paper doi:10.1101/2022.07.31.501833.
